Results published in US20220334133A1, “METHODS AND COMPOUNDS MODIFYING MITOCHONDRIAL FUNCTION” (The Board of Trusteesof the Leland Stanford Junior …, priority 2019, published 2022).
At least one structure is not confirmed: it was looked up by name or label, or the drawing left a doubt. Some results were stated once for a whole list of compounds, not compound by compound.

Legend:
Miro1 = experiment: Hit confirmation: immunocytochemistry and confocal microscopy of Miro1 in sporadic PD fibroblasts; format: cell-based, human; settings: DMSO instead of FCCP, with compound at highest screening concentration; sporadic PD line; at least 4 biological replicates
Description: Fibroblast cells were plated in 6-well plates (VWR, 10861-554) on coverslips (Fisher scientific, 22-293232) at 400.000 cells/well and plates were incubated at 37° C., 5% CO2 for 24 hrs. Next, newly ordered chemical compounds dissolved in DMSO were added at defined concentrations and plates were incubated at 37° C./5% CO2 for 10 hrs. Then, FCCP (final concentration of 20 μM, Carbonyl cyanide 4-(trifluoromethoxy)phenylhydrazone, Sigma-Aldrich, C2920) in cell media was added to defined wells and plates were incubated at 37° C., 5% CO2 for another 14 hrs. Cells were fixed with ice-cold 90% methanol (Fisher, 482332) for 20 min at −20° C., incubated with blocking buffer (10% Normal Goat Serum (NGS) (ThermoFisher, 50062Z), 0.5% BSA (ThermoFisher, BP1600), 0.2% Triton X-100 (ThermoFisher, T8787)) at 25° C. for 15 min and incubated with anti-Miro1 (Sigma-Aldrich, HPA0101687) at 1:100 in blocking buffer O/N at 4° C. […]

L-type channel = settings: characteristic of the dihydropyridine class; read-out: IC50 values for L-channel block; cited from earlier work

SMILES | Basal Miro1 levels (without mitochondrial depolarization) (Miro1) | IC50 (L-type channel) [nM]
Cn1nnc2c(C(N)=O)ncn2c1=O [Temozolomide] | already reduced Miro1 protein at baseline | 
COc1ccc(/C=C/C(=O)Nc2ccccc2C(=O)O)cc1OC [Tranilast] | no impact on basal Miro1 levels | 
COC(=O)C1=C(C)NC(C)=C(C(=O)OC)C1c1ccccc1[N+](=O)[O-] [nifedipine] |  | < 1000
